Data from patent US20210047373A1, “BETA BARREL POLYPEPTIDES AND METHODS FOR THEIR USE” (UNIVERSITY OF WASHINGTON, priority 2018, published 2021).

B1: mFAP1: SEQ ID NO:33; variant of b11L5F.2 (protein)
chain: MSRAAQLLPGTWQTTMTNEDGQTSQGQMHFQPRSPYTLDVVAQGTISDGRPISGYGKVTVKTDDTLDVDITYPSLGNIKVQGQVTMDSPTQFKFDATTSDGKKLTGTLQRQE
modifications: (1)..(1) optionally absent
B2: mFAP2.4: SEQ ID NO:59 (protein)
chain: MSRAAQLLPGTWQVTMTNEDGQTSQGQMHFQPRSPYTMDIVAQGTISDGRPIVGYGKATVKTPDTLDVDITYPSLGNIKAQGQITMDSPTQFKFDATTKGAGNFTGRLTGTLQRQE
modifications: (1)..(1) optionally absent
B3: mFAP2.5: SEQ ID NO:60; mutations of mFAP2.3 and mFAP2.4 combined (protein)
chain: B2 chain with M28W, F94W, A101E, G102N, N103D, T105H
modifications: (1)..(1) optionally absent
B4: mFAP2b: SEQ ID NO:69; mFAP2.5 with V67I (protein)
chain: B2 chain with M28W, V68I, F94W, A101E, G102N, N103D, T105H
modifications: (1)..(1) optionally absent
B5: mFAP2.1: SEQ ID NO:40 (protein)
chain: B2 chain with I40V, P51T, A58V
modifications: (1)..(1) optionally absent
B6: mFAP2a: SEQ ID NO:66 (protein)
chain: B2 chain with V14A, M16F, M28W, V68I, F94W, A101E, G102N, N103D, T105H
modifications: (1)..(1) optionally absent
B7: mFAP2: SEQ ID NO:38; variant of b11L5F.1 with 6-residue insertion in the seventh β-turn (protein)
chain: B2 chain with I40V, V53S, A58V
modifications: (1)..(1) optionally absent
B8: mFAP2.2: SEQ ID NO:41 (protein)
chain: B2 chain with I40V, A58V
modifications: (1)..(1) optionally absent
B9: mFAP2.3: SEQ ID NO:58 (protein)
chain: B2 chain with I40V, A58V, A101E, G102N, N103D, T105H
modifications: (1)..(1) optionally absent

Assay: Relative densitometry (expression in Lemo21(DE3) E. coli cultures)
Settings: normalized 0 to 1, Table 3A
In the case of B1, the Densitometry is reported as 0.4326. In the case of B2, the Densitometry is reported as 0.7495. Molecule B3 has a Densitometry of 0.6405. Molecule B4 has a Densitometry of 0.4858. With B5 the Densitometry was 0.4747. With B6 the Densitometry was 0.3875. For B7, the Densitometry was 0.4332. In the case of B8, the Densitometry is reported as 0.4749. In the case of B9, the Densitometry is reported as 0.7958.

Same assay, conditions: normalized 0 to 1, Table 3B
With B1 the Densitometry was 0.4326. With B2 the Densitometry was 0.7495. B3 showed a Densitometry of 0.6405. Work on B4 yielded a Densitometry of 0.4858. B5 gave a Densitometry of 0.4747. Work on B6 yielded a Densitometry of 0.3875. Molecule B7 has a Densitometry of 0.4332. Work on B8 yielded a Densitometry of 0.4749. Molecule B9 has a Densitometry of 0.7958.

Where a chain is given by its changes, count along the chain named. Names and notes keep the numbering of the source.
